Experimental data: PubChem BioAssay AID1259294 (Sanger Institute, 2017)
This is a random part of 160 reagents tested. Over the whole deposit, 43 (27%) were called active. 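Calls mean synergy with any one drug, not lethality of knock-down alone; BYL719 1 µM, cetuximab 5 µg/ml, trametinib 10 nM barely cut viability.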 A number with no mark means an inactive call. Further read-outs or replicates are left out here. No sequences are given here. Not stated in the record: the amount of reagent, the time to read-out.

Assay: 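Retest synthetic lethal gene and drug pairs with separate siRNA duplexes in CL40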 (follow-up of hits)
Cells: human CL40 colorectal cancer cells
Reagents: single siRNA against human genes
Treatment: anchor drug or DMSO vehicle added to knock-down cells: BYL719 1 µM, cetuximab 5 µg/ml, trametinib 10 nM
Measured: 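Viability averaged across replicates, each scaled to control pool 2 (non-targeting), under vehicle or anchor drug; synergy score compares observed combined effect with expected effect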
Reading the numbers: synergy score with trametinib and synergy score with BYL719 and synergy score with cetuximab: higher = stronger synergistic (synthetic lethal) killing
Rule for the call: 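Called synergy with a drug when the synergy score is above 0.10 for at least one anchor drug, otherwise no synergy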
Meaning of the calls: active = synergy with a drug; inactive = no synergy

Gene | PubChem SID | synergy score with trametinib | synergy score with BYL719 | synergy score with cetuximab
RPS6KA4 | SID56476603 | 0.0279 | -0.22 | -0.1
RPS6KA4 | SID56476604 | 0.149 (active) | 0.0513 | -0.112
RPS6KA4 | SID56476605 | -0.0218 | -0.279 | -0.0883
RPS6KA4 | SID56476606 | 0.141 (active) | 0.0447 | -0.167
EPHA6 | SID56477259 | 0.0151 | -0.277 | -0.233
EPHA6 | SID56477260 | 0.179 (active) | -0.00463 | -0.112
EPHA6 | SID56477261 | 0.0557 (active) | -0.0532 | 0.116
EPHA6 | SID56477262 | 0.123 (active) | 0.0356 | 0.024
NR2F2 | SID134229233 | 0.0997 | -0.0561 | -0.0456
NR2F2 | SID134229234 | -0.0391 | -0.292 | -0.23
NR2F2 | SID134229235 | -0.0475 | -0.269 | -0.159
NR2F2 | SID134229236 | 0.124 (active) | 0.077 | -0.179
PIM1 | SID56476199 | 0.0185 | -0.0585 | -0.0145
PIM1 | SID56476200 | -0.0161 (active) | 0.116 | -0.193
PIM1 | SID56476201 | -0.162 | -0.427 | -0.0135
PIM1 | SID56476202 | 0.0254 | -0.217 | -0.141

The list goes on; the last 2 above are carried over.
Gene | PubChem SID | synergy score with trametinib | synergy score with BYL719 | synergy score with cetuximab
PIM1 | SID56476201 | -0.162 | -0.427 | -0.0135
PIM1 | SID56476202 | 0.0254 | -0.217 | -0.141
MAPK4 | SID56476079 | 0.0447 | -0.177 | -0.0313
MAPK4 | SID56476080 | -0.0338 | -0.133 | -0.123
MAPK4 | SID56476081 | 0.0713 | -0.0465 | 0.03
MAPK4 | SID56476082 | 0.0405 | -0.179 | -0.26
HSPB8 | SID56477019 | 0.133 (active) | -0.0988 | -0.0578
HSPB8 | SID56477020 | -0.00557 | -0.134 | 0.0368
HSPB8 | SID56477021 | -0.109 | -0.197 | -0.163
HSPB8 | SID56477022 | 0.162 (active) | -0.00559 | 0.000562
